Results taken from patent US8642555B2, “Prodrugs” (KTB Tumorforschungsgesellschaft mbH, priority 2009, dated 2014).
Some entries share one result that the patent states for a list of compounds.

System: LNCaP prostate tumor tissue homogenates
Assay: Cleavage by LNCaP prostate tumor tissue homogenates, HPLC-monitored
Type: in vitro ADME
Details: 100 μM, 37° C.

SMILES: COc1cccc2c1C(=O)c1c(O)c3c(c(O)c1C2=O)C[C@@](O)(C(=O)CO)CC3O[C@H]1CC(NC(=O)OCc2ccc(NC(=O)[C@H](CC(C)C)NC(=O)[C@@H](N)CO)cc2)[C@H](O)[C@H](C)O1 (stereo partly drawn) [compound 5, H-Ser-Leu-PABC-DOXO]
- time to complete cleavage liberating the free cytotoxic drug: ≤ 3 h
